Experimental data reported in PMC6700475.

Protein sequences, listed by entry. Tags and fused reporters are not part of them.
UniProt Q15554: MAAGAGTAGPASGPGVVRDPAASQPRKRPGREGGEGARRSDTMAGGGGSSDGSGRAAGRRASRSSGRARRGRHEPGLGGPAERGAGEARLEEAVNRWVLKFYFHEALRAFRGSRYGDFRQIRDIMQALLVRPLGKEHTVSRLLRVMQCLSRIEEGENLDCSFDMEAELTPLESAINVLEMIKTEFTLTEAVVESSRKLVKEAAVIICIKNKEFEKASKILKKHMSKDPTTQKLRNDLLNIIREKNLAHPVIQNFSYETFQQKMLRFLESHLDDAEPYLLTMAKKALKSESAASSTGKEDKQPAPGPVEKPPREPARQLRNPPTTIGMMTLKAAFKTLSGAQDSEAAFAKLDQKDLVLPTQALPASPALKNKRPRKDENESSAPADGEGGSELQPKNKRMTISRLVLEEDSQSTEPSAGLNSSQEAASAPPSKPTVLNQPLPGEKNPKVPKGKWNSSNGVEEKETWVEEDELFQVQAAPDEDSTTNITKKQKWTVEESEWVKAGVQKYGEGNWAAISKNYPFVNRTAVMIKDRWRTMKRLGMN
UniProt P04406: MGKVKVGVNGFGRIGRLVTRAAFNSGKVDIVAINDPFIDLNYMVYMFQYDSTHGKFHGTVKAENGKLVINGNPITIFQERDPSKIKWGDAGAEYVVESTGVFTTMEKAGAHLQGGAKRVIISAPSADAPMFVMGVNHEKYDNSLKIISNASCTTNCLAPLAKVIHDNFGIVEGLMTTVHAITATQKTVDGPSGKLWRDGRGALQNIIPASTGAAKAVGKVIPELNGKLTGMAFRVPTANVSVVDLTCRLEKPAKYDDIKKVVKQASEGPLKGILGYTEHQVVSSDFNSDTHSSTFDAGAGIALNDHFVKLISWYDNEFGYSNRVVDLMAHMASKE
UniProt P06733: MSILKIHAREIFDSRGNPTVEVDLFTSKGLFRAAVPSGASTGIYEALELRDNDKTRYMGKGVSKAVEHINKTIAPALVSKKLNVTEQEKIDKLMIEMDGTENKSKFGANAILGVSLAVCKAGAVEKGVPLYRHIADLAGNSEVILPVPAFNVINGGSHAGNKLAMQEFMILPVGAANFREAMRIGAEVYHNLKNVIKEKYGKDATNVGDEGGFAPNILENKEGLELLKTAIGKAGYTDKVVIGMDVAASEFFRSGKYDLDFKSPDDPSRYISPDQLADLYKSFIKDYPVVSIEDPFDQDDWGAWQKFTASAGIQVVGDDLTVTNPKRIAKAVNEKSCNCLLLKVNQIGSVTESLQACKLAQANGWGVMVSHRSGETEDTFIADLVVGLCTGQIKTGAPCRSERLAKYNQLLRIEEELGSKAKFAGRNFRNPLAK
UniProt P14618: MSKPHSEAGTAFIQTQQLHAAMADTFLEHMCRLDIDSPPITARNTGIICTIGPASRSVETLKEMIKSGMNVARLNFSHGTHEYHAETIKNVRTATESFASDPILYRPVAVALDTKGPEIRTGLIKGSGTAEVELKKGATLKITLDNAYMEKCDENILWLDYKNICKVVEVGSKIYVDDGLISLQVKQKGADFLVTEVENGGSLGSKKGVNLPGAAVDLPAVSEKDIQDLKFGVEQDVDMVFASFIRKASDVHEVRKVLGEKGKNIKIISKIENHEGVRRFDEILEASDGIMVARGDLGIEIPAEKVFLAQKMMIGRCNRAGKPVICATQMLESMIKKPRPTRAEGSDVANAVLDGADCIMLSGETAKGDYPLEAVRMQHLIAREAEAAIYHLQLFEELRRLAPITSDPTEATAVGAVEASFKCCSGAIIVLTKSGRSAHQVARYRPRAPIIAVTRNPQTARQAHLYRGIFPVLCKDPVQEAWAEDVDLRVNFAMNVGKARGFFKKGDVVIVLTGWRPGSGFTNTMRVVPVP
UniProt Q96AP0: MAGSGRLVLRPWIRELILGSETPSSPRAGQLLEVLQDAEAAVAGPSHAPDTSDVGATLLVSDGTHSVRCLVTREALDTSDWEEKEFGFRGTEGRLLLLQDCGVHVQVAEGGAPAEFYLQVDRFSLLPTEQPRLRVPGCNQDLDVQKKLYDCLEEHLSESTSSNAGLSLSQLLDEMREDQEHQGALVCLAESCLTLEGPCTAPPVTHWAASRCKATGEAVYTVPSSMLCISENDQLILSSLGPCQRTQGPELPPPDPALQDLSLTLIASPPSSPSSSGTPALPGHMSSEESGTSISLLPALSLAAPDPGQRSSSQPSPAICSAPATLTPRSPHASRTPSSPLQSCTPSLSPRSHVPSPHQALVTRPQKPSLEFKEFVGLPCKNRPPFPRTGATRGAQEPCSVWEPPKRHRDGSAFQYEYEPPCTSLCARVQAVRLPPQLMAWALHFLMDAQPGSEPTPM

B1: RAP1 (protein, UniProt Q9NYB0 1-399)
chain: MAEAMDLGKDPNGPTHSSTLFVRDDGSSMSFYVRPSPAKRRLSTLILHGGGTVCRVQEPGAVLLAQPGEALAEASGDFISTQYILDCVERNERLELEAYRLGPASAADTGSEAKPGALAEGAAEPEPQRHAGRIAFTDADDVAILTYVKENARSPSSVTGNALWKAMEKSSLTQHSWQSLKDRYLKHLRGQEHKYLLGDAPVSPSSQKLKRKAEEDPEAADSGEPQNKRTPDLPEEEYVKEEIQENEEAVKKMLVEATREFEEVVVDESPPDFEIHITMCDDDPPTPEEDSETQPDEEEEEEEEKVSQPEVGAAIKIIRQLMEKFNLDLSTVTQAFLKNSGELEATSAFLASGQRADGYPIWSRQDDIDLQKDDEDTREALVKKFGAQNVARRIEFRKK
B2: POT1 (protein, UniProt Q9NUX5 1-634)
chain: MSLVPATNYIYTPLNQLKGGTIVNVYGVVKFFKPPYLSKGTDYCSVVTIVDQTNVKLTCLLFSGNYEALPIIYKNGDIVRFHRLKIQVYKKETQGITSSGFASLTFEGTLGAPIIPRTSSKYFNFTTEDHKMVEALRVWASTHMSPSWTLLKLCDVQPMQYFDLTCQLLGKAEVDGASFLLKVWDGTRTPFPSWRVLIQDLVLEGDLSHIHRLQNLTIDILVYDNHVHVARSLKVGSFLRIYSLHTKLQSMNSENQTMLSLEFHLHGGTSYGRGIRVLPESNSDVDQLKKDLESANLTANQHSDVICQSEPDDSFPSSGSVSLYEVERCQQLSATILTDHQYLERTPLCAILKQKAPQQYRIRAKLRSYKPRRLFQSVKLHCPKCHLLQEVPHEGDLDIIFQDGATKTPDVKLQNTSLYDSKIWTTKNQKGRKVAVHFVKNNGILPLSNECLLLIEGGTLSEICKLSNKFNSVIPVRSGHEDLELLDLSAPFLIQGTIHHYGCKQCSSLRSIQNLNSLVDKTSWIPSSVAEALGIVPLQYVFVMTFTLDDGTGVLEAYLMDSDKFFQIPASEVLMDDDLQKSVDMIMDMFCPPGIKIDAYPWLECFIKSYNVTNGTDNQICYQIFDTTVAEDVI
B3: TIN2 (protein, UniProt Q9BSI4 1-451)
chain: MATPLVAGPAALRFAAAASWQVVRGRCVEHFPRVLEFLRSLRAVAPGLVRYRHHERLCMGLKAKVVVELILQGRPWAQVLKALNHHFPESGPIVRDPKATKQDLRKILEAQETFYQQVKQLSEAPVDLASKLQELEQEYGEPFLAAMEKLLFEYLCQLEKALPTPQAQQLQDVLSWMQPGVSITSSLAWRQYGVDMGWLLPECSVTDSVNLAEPMEQNPPQQQRLALHNPLPKAKPGTHLPQGPSSRTHPEPLAGRHFNLAPLGRRRVQSQWASTRGGHKERPTVMLFPFRNLGSPTQVISKPESKEEHAIYTADLAMGTRAASTGKSKSPCQTLGGRALKENPVDLPATEQKENCLDCYMDPLRLSLLPPRARKPVCPPSLCSSVITIGDLVLDSDEEENGQGEGKESLENYQKTKFDTLIPTLCEYLPPSGHGAIPVSSCDCRDSSRPL
B4: 5′-exonuclease Apollo (DCLRE1B) (protein, UniProt Q9H816 1-532)
chain: MNGVLIPHTPIAVDFWSLRRAGTARLFFLSHMHSDHTVGLSSTWARPLYCSPITAHLLHRHLQVSKQWIQALEVGESHVLPLDEIGQETMTVTLLDANHCPGSVMFLFEGYFGTILYTGDFRYTPSMLKEPALTLGKQIHTLYLDNTNCNPALVLPSRQEAAHQIVQLIRKHPQHNIKIGLYSLGKESLLEQLALEFQTWVVLSPRRLELVQLLGLADVFTVEEKAGRIHAVDHMEICHSNMLRWNQTHPTIAILPTSRKIHSSHPDIHVIPYSDHSSYSELRAFVAALKPCQVVPIVSRRPCGGFQDSLSPRISVPLIPDSVQQYMSSSSRKPSLLWLLERRLKRPRTQGVVFESPEESADQSQADRDSKKAKKEKLSPWPADLEKQPSHHPLRIKKQLFPDLYSKEWNKAVPFCESQKRVTMLTAPLGFSVHLRSTDEEFISQKTREEIGLGSPLVPMGDDDGGPEATGNQSAWMGHGSPLSHSSKGTPLLATEFRGLALKYLLTPVNFFQAGYSSRRFDQQVEKYHKPC
B5: ALDOA (protein, UniProt P04075 1-364)
chain: MPYQYPALTPEQKKELSDIAHRIVAPGKGILAADESTGSIAKRLQSIGTENTEENRRFYRQLLLTADDRVNPCIGGVILFHETLYQKADDGRPFPQVIKSKGGVVGIKVDKGVVPLAGTNGETTTQGLDGLSERCAQYKKDGADFAKWRCVLKIGEHTPSALAIMENANVLARYASICQQNGIVPIVEPEILPDGDHDLKRCQYVTEKVLAAVYKALSDHHIYLEGTLLKPNMVTPGHACTQKFSHEEIAMATVTALRRTVPPAVTGITFLSGGQSEEEASINLNAINKCPLLKPWALTFSYGRALQASALKAWGGKKENLKAAQEEYVKRALANSLACQGKYTPSGQAGAAASESLFVSNHAY

Columns and labels:
[1] = biological target: TRF2 (human (endogenous in HCT116)) (UniProt Q15554); experiment: affinity purification with mass spectrometry; TRF2 immunoprecipitates of HCT116 cells grown 1 week in 5 mM glucose, vehicle (untreated condition); LC-MS/MS of gel bands, Mascot and Scaffold; the glycolysis proteins were also quantified after 10 nM CRT0063465
[2] = biological target: TRF2 (human (endogenous in HCT116)) (UniProt Q15554); experiment: affinity purification with mass spectrometry; TRF2 immunoprecipitates of HCT116 cells grown 1 week in 5 mM glucose with 10 nM CRT0063465 (treated condition); LC-MS/MS of gel bands, Mascot and Scaffold
[3] = biological target: TRF2 (human (endogenous in HCT116)) (UniProt Q15554); experiment: affinity purification with mass spectrometry; TRF2 immunoprecipitates of HCT116 cells grown 1 week in 5 mM glucose, vehicle (untreated condition); LC-MS/MS of gel bands, Mascot and Scaffold; the glycolysis proteins were also quantified after 10 nM CRT0063465; remark: listed apart in the source

| Molecule | binding [1] | binding [2] | binding [3] |
| --- | --- | --- | --- |
| GAPDH (from UniProt P04406 1-335) | binds | – | – |
| PGI (from UniProt P06744 1-558) | no binding | – | – |
| ENO1 (from UniProt P06733 1-434) | binds | – | – |
| PKM (from UniProt P14618 1-531) | binds | – | – |
| TPP1 (from UniProt Q96AP0 1-458) | no binding (only cells not treated with CRT0063465) | binds | – |
| B1 | – | – | binds |
| B2 | – | – | binds |
| B3 | – | binds | no binding (only cells not treated with CRT0063465) |
| B4 | – | binds | – |
| B5 | – | – | binds |

These are yes or no findings as the source states them, for the method shown. In cells and extracts the contact can be indirect. These calls come from enrichment with a bait or labelling near it, and not all partners need be listed. For part of these data: A no says only that the protein was not detected with the bait.
